Experimental data published in PMC8353798.

Amino acid sequences for entries named in this document (tags omitted).
UniProt P51858: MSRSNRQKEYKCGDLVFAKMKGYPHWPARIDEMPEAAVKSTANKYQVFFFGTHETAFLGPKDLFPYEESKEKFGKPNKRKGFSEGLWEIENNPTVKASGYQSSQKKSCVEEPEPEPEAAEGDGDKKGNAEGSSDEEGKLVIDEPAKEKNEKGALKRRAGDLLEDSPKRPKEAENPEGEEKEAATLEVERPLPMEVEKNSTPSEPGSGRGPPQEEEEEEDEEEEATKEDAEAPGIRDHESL
UniProt P40763: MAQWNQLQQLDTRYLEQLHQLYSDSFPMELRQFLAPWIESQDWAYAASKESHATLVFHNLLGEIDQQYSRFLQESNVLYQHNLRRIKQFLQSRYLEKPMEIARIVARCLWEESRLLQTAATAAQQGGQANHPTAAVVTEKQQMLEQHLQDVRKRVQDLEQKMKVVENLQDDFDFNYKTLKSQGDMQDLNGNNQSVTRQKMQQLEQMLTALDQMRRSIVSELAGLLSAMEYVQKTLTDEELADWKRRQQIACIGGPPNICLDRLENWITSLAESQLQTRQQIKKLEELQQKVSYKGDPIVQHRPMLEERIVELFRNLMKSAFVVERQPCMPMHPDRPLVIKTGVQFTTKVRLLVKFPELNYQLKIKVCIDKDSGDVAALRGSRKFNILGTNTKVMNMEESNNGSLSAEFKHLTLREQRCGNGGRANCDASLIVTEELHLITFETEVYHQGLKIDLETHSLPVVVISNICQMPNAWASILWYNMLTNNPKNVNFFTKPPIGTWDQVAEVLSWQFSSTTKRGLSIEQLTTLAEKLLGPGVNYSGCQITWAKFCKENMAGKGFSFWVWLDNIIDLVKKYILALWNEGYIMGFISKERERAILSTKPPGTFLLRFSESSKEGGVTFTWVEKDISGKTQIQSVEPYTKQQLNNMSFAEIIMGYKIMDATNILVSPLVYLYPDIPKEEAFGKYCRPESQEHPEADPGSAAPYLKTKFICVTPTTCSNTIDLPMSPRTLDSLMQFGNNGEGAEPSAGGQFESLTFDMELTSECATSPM

Target: Flag-tagged HDGF (UniProt P51858)
Test: affinity purification with mass spectrometry; Flag pull-down from MDA-MB-231 cells overexpressing Flag-tagged HDGF or a Flag-GFP control, silver staining, LC-MS/MS

binding: binds
Substance: STAT3 (from UniProt P40763 1-770)

Results are given in words; binding and its absence hold for the method and conditions named. In cells and extracts the contact can be indirect. A yes stands for co-enrichment or nearness to the bait. Other partners may have been found.
